For 1 compound, Ki results are on record in ChEMBL document CHEMBL4400558, “Optimization of Blood-Brain Barrier Permeability with Potent and Selective Human Neuronal Nitric Oxide Synthase Inhibitors Having a 2-Aminopyridine Scaffold” (J Med Chem, 2019).

Protein sequences, listed by entry. Tags and fused reporters are not part of them.
UniProt P35228, whole entry: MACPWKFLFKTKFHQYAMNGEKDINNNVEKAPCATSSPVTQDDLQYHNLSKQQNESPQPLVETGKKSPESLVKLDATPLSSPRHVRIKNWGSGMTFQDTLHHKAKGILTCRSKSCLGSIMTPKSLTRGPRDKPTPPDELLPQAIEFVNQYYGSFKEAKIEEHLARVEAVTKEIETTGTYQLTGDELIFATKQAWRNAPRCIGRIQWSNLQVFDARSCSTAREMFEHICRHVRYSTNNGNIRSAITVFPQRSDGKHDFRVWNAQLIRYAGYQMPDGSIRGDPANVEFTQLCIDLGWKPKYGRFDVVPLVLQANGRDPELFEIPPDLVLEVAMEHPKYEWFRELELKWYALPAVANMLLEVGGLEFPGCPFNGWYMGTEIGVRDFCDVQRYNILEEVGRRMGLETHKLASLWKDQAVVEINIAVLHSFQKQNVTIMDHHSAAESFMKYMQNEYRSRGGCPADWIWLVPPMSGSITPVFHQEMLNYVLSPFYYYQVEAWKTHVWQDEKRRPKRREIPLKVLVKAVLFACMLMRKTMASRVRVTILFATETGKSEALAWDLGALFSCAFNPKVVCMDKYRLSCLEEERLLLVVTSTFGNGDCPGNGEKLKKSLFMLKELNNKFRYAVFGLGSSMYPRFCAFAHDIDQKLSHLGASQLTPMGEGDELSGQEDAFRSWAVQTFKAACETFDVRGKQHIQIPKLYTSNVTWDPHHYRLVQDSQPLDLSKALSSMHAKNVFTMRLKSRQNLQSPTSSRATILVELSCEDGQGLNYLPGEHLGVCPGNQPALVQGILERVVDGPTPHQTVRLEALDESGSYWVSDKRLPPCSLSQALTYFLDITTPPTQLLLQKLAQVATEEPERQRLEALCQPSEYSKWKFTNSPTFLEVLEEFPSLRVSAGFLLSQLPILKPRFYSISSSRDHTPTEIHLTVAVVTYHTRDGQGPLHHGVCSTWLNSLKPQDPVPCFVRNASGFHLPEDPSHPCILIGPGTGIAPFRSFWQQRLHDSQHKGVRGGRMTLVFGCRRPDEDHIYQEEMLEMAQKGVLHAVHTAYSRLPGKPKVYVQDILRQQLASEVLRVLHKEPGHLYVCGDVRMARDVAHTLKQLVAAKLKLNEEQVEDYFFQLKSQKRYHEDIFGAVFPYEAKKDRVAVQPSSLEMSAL

pKi: −log10 of the molar value.

The assay has as its target Nitric oxide synthase, inducible (Homo sapiens, UniProt P35228).

A word on the pKi: it is the Ki on a negative log10 scale, so that one unit is a factor of ten. As to `Cc1cc(N)nc(CCc2cc(F)cc(CCCN(C)C)c2)c1`, the negative-log Ki (pKi) was 5.46.
